Record: PubChem BioAssay AID1053209 (Peter MacCallum Cancer Centre, 2014)
In all, the deposit lists about 1,580 reagents; this is an unselected part. Of all reagents, 207 (13%) were called active. 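Rows are single siRNAs; four siRNAs per gene were tested, a gene counting as confirmed only when at least two agree.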 The numbers tell different reagents against one gene apart. Not all columns of the deposit are shown.

- Purpose: 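Knock-downs that sensitise mouse osteosarcoma cells to doxorubicin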 (follow-up of hits)
- Cell system: mouse primary osteosarcoma cells
- Knock-down reagent: single siRNA against mouse genes, 25 nM (text also states 40 nM)
- Duration: about 120 h (48 h before drug, then 72 h with drug)
- Conditions: doxorubicin 100 nM (about IC30-40), added 48 h after transfection, for 72 h
- Measurement: 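Viability measured by ATP luminescence with and without doxorubicin, each replicate scaled to non-targeting siRNA NT1, averaged over two replicates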
- Direction: viability with doxorubicin, vs NT1: higher = more viable cells under doxorubicin; viability without drug, vs NT1: higher = more viable cells without drug
- Call rule: 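Active when doxorubicin viability is at most 0.7 of NT1 and drug-free viability lies between 0.7 and 1.1, class LC dox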

Cwc22 #1 | combined effect class: normal viability with and without drug; viability with doxorubicin, vs NT1: 0.92; viability without drug, vs NT1: 0.92; activity call: inactive
Cwc22 #2 | combined effect class: normal viability with and without drug; viability with doxorubicin, vs NT1: 0.8; viability without drug, vs NT1: 0.8; activity call: inactive
Cwc22 #3 | combined effect class: normal viability with and without drug; viability with doxorubicin, vs NT1: 0.85; viability without drug, vs NT1: 0.92; activity call: inactive
Cwc22 #4 | combined effect class: low viability only with doxorubicin; normal without drug; viability with doxorubicin, vs NT1: 0.48; viability without drug, vs NT1: 0.83; activity call: active
Med14 #1 | combined effect class: low viability with and without drug; viability with doxorubicin, vs NT1: 0.46; viability without drug, vs NT1: 0.67; activity call: inactive
Med14 #2 | combined effect class: low viability only with doxorubicin; normal without drug; viability with doxorubicin, vs NT1: 0.48; viability without drug, vs NT1: 0.77; activity call: active
Med14 #3 | combined effect class: low viability only with doxorubicin; normal without drug; viability with doxorubicin, vs NT1: 0.6; viability without drug, vs NT1: 0.92; activity call: active
Med14 #4 | combined effect class: normal viability with and without drug; viability with doxorubicin, vs NT1: 0.72; viability without drug, vs NT1: 0.87; activity call: inactive
Adcy2 #1 | combined effect class: normal viability with and without drug; viability with doxorubicin, vs NT1: 1.04; viability without drug, vs NT1: 1.06; activity call: inactive
Adcy2 #2 | combined effect class: normal viability with and without drug; viability with doxorubicin, vs NT1: 0.95; viability without drug, vs NT1: 0.91; activity call: inactive
Adcy2 #3 | combined effect class: normal viability with and without drug; viability with doxorubicin, vs NT1: 0.88; viability without drug, vs NT1: 1.08; activity call: inactive
Adcy2 #4 | combined effect class: normal viability with and without drug; viability with doxorubicin, vs NT1: 1.02; viability without drug, vs NT1: 1; activity call: inactive
Rpl19 #1 | combined effect class: normal viability with and without drug; viability with doxorubicin, vs NT1: 1.04; viability without drug, vs NT1: 1; activity call: inactive
Rpl19 #2 | combined effect class: low viability with and without drug; viability with doxorubicin, vs NT1: 0.46; viability without drug, vs NT1: 0.6; activity call: inactive
Rpl19 #3 | combined effect class: low viability with and without drug; viability with doxorubicin, vs NT1: 0.56; viability without drug, vs NT1: 0.7; activity call: inactive
Rpl19 #4 | combined effect class: low viability with and without drug; viability with doxorubicin, vs NT1: 0.35; viability without drug, vs NT1: 0.61; activity call: inactive
Tmem220 #1 | combined effect class: high viability only with doxorubicin; viability with doxorubicin, vs NT1: 1.21; viability without drug, vs NT1: 1.05; activity call: inactive
Tmem220 #2 | combined effect class: normal viability with and without drug; viability with doxorubicin, vs NT1: 1.06; viability without drug, vs NT1: 0.98; activity call: inactive
Tmem220 #3 | combined effect class: high viability only without drug; viability with doxorubicin, vs NT1: 1.04; viability without drug, vs NT1: 1.19; activity call: inactive
Tmem220 #4 | combined effect class: normal viability with and without drug; viability with doxorubicin, vs NT1: 1.06; viability without drug, vs NT1: 0.96; activity call: inactive
Rbpms #1 | combined effect class: normal viability with and without drug; viability with doxorubicin, vs NT1: 1.03; viability without drug, vs NT1: 1.07; activity call: inactive
Rbpms #2 | combined effect class: normal viability with and without drug; viability with doxorubicin, vs NT1: 1.01; viability without drug, vs NT1: 0.96; activity call: inactive
Rbpms #3 | combined effect class: normal viability with and without drug; viability with doxorubicin, vs NT1: 0.97; viability without drug, vs NT1: 0.92; activity call: inactive
Rbpms #4 | combined effect class: normal viability with and without drug; viability with doxorubicin, vs NT1: 0.94; viability without drug, vs NT1: 0.93; activity call: inactive

Sorted by “viability without drug, vs NT1” (high to low): 3 of the entries above
Adcy2 #3 | combined effect class: normal viability with and without drug; viability with doxorubicin, vs NT1: 0.88; viability without drug, vs NT1: 1.08; activity call: inactive
Adcy2 #4 | combined effect class: normal viability with and without drug; viability with doxorubicin, vs NT1: 1.02; viability without drug, vs NT1: 1; activity call: inactive
Adcy2 #2 | combined effect class: normal viability with and without drug; viability with doxorubicin, vs NT1: 0.95; viability without drug, vs NT1: 0.91; activity call: inactive
